# No constants are given. Whether binding was seen depends on the method and setting. Some entries that bind do so weakly or less than the wild type.
# The chains behind the UniProt entries cited, without tags or fusion partners. Where a name states a change or a piece, a line headed by the entry shows the natural chain unless it says otherwise.
# UniProt Q99558: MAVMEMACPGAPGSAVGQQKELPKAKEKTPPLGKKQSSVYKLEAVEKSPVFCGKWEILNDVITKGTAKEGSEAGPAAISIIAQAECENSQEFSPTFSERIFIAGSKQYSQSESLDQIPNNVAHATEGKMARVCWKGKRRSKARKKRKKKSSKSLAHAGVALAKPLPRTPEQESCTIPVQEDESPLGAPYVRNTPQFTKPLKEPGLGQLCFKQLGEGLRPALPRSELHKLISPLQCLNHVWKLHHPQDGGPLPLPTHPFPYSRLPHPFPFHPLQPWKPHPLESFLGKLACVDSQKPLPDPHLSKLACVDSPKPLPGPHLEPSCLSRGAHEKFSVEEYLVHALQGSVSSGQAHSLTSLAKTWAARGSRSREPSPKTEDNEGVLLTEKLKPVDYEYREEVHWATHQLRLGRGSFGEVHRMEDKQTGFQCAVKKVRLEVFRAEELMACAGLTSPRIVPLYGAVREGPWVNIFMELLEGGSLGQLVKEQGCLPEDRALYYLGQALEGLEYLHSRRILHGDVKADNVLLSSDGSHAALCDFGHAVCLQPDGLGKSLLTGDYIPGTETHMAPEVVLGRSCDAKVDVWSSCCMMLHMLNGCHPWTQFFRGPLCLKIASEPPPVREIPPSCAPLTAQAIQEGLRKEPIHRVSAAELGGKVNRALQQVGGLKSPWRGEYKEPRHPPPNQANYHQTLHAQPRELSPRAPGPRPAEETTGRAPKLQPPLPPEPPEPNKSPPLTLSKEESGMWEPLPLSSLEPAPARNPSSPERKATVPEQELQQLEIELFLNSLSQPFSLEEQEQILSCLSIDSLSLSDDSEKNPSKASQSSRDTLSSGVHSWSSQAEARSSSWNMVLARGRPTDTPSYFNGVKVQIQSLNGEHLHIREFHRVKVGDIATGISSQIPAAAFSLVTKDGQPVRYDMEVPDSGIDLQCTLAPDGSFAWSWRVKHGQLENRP
# Key:
# [1] = molecular target: T1, TRAF2 (UniProt Q12933); test: yeast two-hybrid, NIK construct as bait, Traf2 as prey, beta-gal assay
# T1 sequence (looked up): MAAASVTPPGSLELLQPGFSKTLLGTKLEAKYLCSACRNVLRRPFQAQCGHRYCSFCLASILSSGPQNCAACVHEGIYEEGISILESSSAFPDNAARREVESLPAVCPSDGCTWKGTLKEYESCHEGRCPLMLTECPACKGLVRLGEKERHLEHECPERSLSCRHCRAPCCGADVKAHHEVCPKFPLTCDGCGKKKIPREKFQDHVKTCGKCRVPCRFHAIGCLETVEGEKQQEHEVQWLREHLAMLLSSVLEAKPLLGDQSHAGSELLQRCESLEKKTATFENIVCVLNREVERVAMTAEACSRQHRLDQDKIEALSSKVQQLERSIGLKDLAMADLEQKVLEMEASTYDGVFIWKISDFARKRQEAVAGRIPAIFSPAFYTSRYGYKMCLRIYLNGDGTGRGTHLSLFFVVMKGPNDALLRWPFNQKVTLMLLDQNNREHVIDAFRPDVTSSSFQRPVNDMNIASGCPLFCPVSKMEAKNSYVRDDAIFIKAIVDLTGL
# [2] = molecular target: T1, TRAF2; test: yeast two-hybrid, NIK as bait, Traf2 as prey, beta-gal assay
binding [1],binding [2],Substance
binds,,NIK624-947 (C-terminal domain of NIK) (from UniProt Q99558 624-947) (enzyme)
,binds,"NF-κB-inducing kinase, NIK (MAP3K14), full length (from UniProt Q99558 1-947) (enzyme)"
